Degeneracy data for 76 compounds are collected here from the supplement of paper PMC7752906.

SMILES strings stand for the structures. Structures can show the parent of a compound that is named as a salt. The list shows a part of the results. Single values are uncertain here, since repeats match poorly.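 About 40 Schistosoma mansoni schistosomula per well were imaged over time in bright field and compared with 0.1% DMSO wells. A drug counts as a hit if its Mahalanobis distance reaches 2.47 or more, three standard deviations above the DMSO control mean. Degeneracy is the fraction of worms scored opaque.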

This test relates to Schistosoma mansoni schistosomula. The experiment in a line: degeneracy (percent of somules classified as degenerate/opaque); higher = more parasite degeneration/death; extreme values may be limits of the assay. The note with it: 10 µM; 72 h.
The compound `Cc1nc(Nc2ncc(C(=O)Nc3c(C)cccc3Cl)s2)cc(N2CCN(CCO)CC2)n1` [Dasatinib] showed a degeneracy of 0%.

`CCN(CCO)CCCC(C)Nc1ccnc2cc(Cl)ccc12` (stereo unspecified) [Hydroxychloroquine Sulfate] showed a degeneracy of 4.26%. As for `COc1ccc(CC2c3cc(OC)c(OC)cc3CC[N+]2(C)CCC(=O)OCCCCCOC(=O)CC[N+]2(C)CCc3cc(OC)c(OC)cc3C2Cc2ccc(OC)c(OC)c2)cc1OC` (stereo unspecified) [Atracurium Besylate], the figure is 11.1%. Regarding `CC(C)(C)c1ccc(C(O)CCCN2CCC(C(O)(c3ccccc3)c3ccccc3)CC2)cc1` (stereo unspecified) [terfenadine], the degeneracy was determined as 100%. As for `CCCCN1CCCCC1C(=O)Nc1c(C)cccc1C` (stereo unspecified) [Bupivacaine Hydrochloride], the figure is 15.2%; as for `CO/N=C1\C[C@]2(C[C@@H]3C[C@@H](C/C=C(\C)C[C@@H](C)/C=C/C=C4\CO[C@@H]5[C@H](O)C(C)=C[C@@H](C(=O)O3)[C@]45O)O2)O[C@H](/C(C)=C/C(C)C)[C@H]1C` [moxidectin], 100%; as for `CCOC(=O)NNc1nncc2ccccc12` [Todralazine Hydrochloride], 66.7%. Then `Nc1ccc(S(=O)(=O)Nc2ccccn2)cc1` [Sulfapyridine], with 6.06%; and `CO[C@H]1C[C@H](O[C@H]2[C@H](C)[C@@H](O[C@@H]3O[C@H](C)C[C@H](N(C)C)[C@H]3O)[C@@H](C)C[C@@]3(CO3)C(=O)[C@H](C)[C@@H](O)[C@@H](C)[C@@H](C)OC(=O)[C@@H]2C)O[C@@H](C)[C@@H]1O` [Oleandomycin Phosphate], with 7.69%; and `O=c1[nH]c(=O)c2ccccc2o1` [Carsalam], with 0%. As for `Nc1ccn([C@@H]2O[C@H](CO)[C@@H](O)[C@@H]2O)c(=O)n1` [Cytarabine], the figure is 14.3%; as for `O=c1ccc2ccccc2o1` [Coumarin], 5.41%; as for `O=c1[nH]cnc2c1ncn2[C@@H]1O[C@H](CO)[C@@H](O)[C@H]1O` [Inosine], 11.5%. Compound `CCOc1ccccc1OC(c1ccccc1)C1CNCCO1` (stereo unspecified) [Reboxetine Mesylate] had a degeneracy of 12.5%.

`COc1cc([C@@H]2c3cc4c(cc3[C@@H](O[C@@H]3O[C@@H]5CO[C@@H](c6cccs6)O[C@H]5[C@H](O)[C@H]3O)[C@H]3COC(=O)[C@H]23)OCO4)cc(OC)c1O` [Teniposide] gave a degeneracy of 4%.

The compound `CN(Cc1cnc2nc(N)nc(N)c2n1)c1ccc(C(=O)N[C@@H](CCC(=O)O)C(=O)O)cc1` [Methotrexate] displayed a degeneracy of 4.26%.

Consider `N[C@@H](Cc1ccc(O)cc1)C(=O)O` [Tyrosine], for which the degeneracy amounted to 6.45%. As for `CCN(CC)CCNc1ccc(CO)c2sc3ccccc3c(=O)c12` [hycanthone], the figure is 100%; as for `CN(C)c1ccc(O)c2c1C[C@H]1C[C@H]3[C@H](N(C)C)C(O)=C(C(N)=O)C(=O)[C@@]3(O)C(O)=C1C2=O` [Minocycline Hydrochloride], 4%; as for `Cc1ccsc1/C=C/C1=NCCCN1C` [Morantel Citrate], 0%.

Compound `CCCCCCCCCCCCCCCCOP(=O)([O-])OCC[N+](C)(C)C` [Miltefosine] came in with a degeneracy of 100%. As for `C[N+](C)(C)CCOC(=O)CCC(=O)OCC[N+](C)(C)C` [Succinylcholine Chloride], the figure is 2.78%; as for `C[C@]12CC[C@@H]3c4ccc(OS(=O)(=O)O)cc4CC[C@H]3[C@@H]1CCC2=O` [Estropipate], 6.25%; as for `Cc1ccc(S(=O)(=O)NC(=O)NN2CCCCCC2)cc1` [Tolazamide], 7.69%. `CC(C)(C)CC(C)(C)c1ccc(O)c(Cc2ccc(Cl)cc2Cl)c1` [clofoctol] showed a degeneracy of 100%. `OC(CCCN1CCCCC1)(c1ccccc1)c1ccccc1` [Diphenidol] returned a degeneracy of 13.6%. The compound `CCN(CC)CCOC(=O)C(c1ccccc1)c1ccccc1` [Adiphenine Hydrochloride] came in with a degeneracy of 16%. Turning to `CCOC(=O)c1ccc(N)cc1` [Benzocaine], the degeneracy stood at 9.68%.

Take `CCCCC1(COC(=O)CCC(=O)O)C(=O)N(c2ccccc2)N(c2ccccc2)C1=O` [Suxibuzone]: the degeneracy is 0%. Then `COc1cc(NC(C)CCCN)c2ncccc2c1` (stereo unspecified) [primaquine], with 91.7%; and `CSc1ccc2c(c1)N(CCC1CCCCN1C)c1ccccc1S2` (stereo unspecified) [thioridazine], with 100%.

On to `CC1=C(/C=C/C(C)=C/C=C/C(C)=C\C(=O)O)C(C)(C)CCC1` [Isotretinoin], for which the degeneracy worked out at 6.06%. As for `CC/C(=C(/CC)c1ccc(O)cc1)c1ccc(O)cc1` [Diethylstilbestrol], the figure is 8%; as for `C=CCOC(Cn1ccnc1)c1ccc(Cl)cc1Cl` (stereo unspecified) [Enilconazole], 3.12%; as for `CC(=O)OCC(=O)[C@H]1CC[C@H]2[C@@H]3CCC4=CC(=O)CC[C@]4(C)[C@H]3CC[C@]12C` [Desoxycorticosterone Acetate], 4.17%.

In the case of `CC(CN(C)C)CN1c2ccccc2Sc2ccccc21` (stereo unspecified) [Trimeprazine Tartrate], the degeneracy was 100%.

As for `CCN(CC)CCOCCOC(=O)C(CC)(CC)c1ccccc1` [Oxelaidin Citrate], the degeneracy came to 17.4%. Then `CC(=O)OCC(=O)[C@@]1(OC(C)=O)[C@@H](C)C[C@H]2[C@@H]3C[C@H](F)C4=CC(=O)C=C[C@]4(C)[C@@]3(F)[C@@H](O)C[C@@]21C` [Diflorasone Diacetate], with 0%. Then `C[C@]1(Cn2ccnn2)[C@H](C(=O)O)N2C(=O)C[C@H]2S1(=O)=O` [Tazobactam], with 13.3%. As for `C=CCSCC1Nc2cc(Cl)c(S(N)(=O)=O)cc2S(=O)(=O)N1` (stereo unspecified) [Althiazide], the figure is 3.23%; as for `NC(=O)NS(=O)(=O)c1ccc(N)cc1` [Sulfacarbamide], 0%; as for `CC(=O)N(CC(O)CN(C(C)=O)c1c(I)c(C(=O)NCC(O)CO)c(I)c(C(=O)NCC(O)CO)c1I)c1c(I)c(C(=O)NCC(O)CO)c(I)c(C(=O)NCC(O)CO)c1I` (stereo unspecified) [Iodixanol], 7.14%.

`c1ccc(CN(CC2=NCCN2)c2ccccc2)cc1` [Antazoline] had a degeneracy of 22.7%. Then `CN(C)CC/C=C1/c2ccccc2COc2ccc(CC(=O)O)cc21` [Olopatadine Hcl], with 8.7%; and `COc1cc(/C=C/C(=O)N2CCCCCCC2)cc(OC)c1OC` [Cinoctramide], with 3.45%. As for `OCc1ccccc1O` [Salicyl Alcohol], the figure is 7.5%. As for `COc1c(N2CCNC(C)C2)c(F)cc2c(=O)c(C(=O)O)cn(C3CC3)c12` (stereo unspecified) [Gatifloxacin], the figure is 2.27%.

For the compound `O=C(c1ccccc1)c1ccc2n1CCC2C(=O)O` (stereo unspecified) [Ketorolac Tromethamine], the degeneracy was determined as 5.56%. `CN(C)CC(c1ccc(O)cc1)C1(O)CCCCC1` (stereo unspecified) [Desvenlafaxine Succinate]: the degeneracy turned out to be 2.7%. Then `NC(=O)[C@@H]1CCCN1C(=O)[C@H](Cc1c[nH]cn1)NC(=O)[C@@H]1CCC(=O)N1` [Protirelin], with 14.3%. Then `CC(=O)Oc1cccc(C)c1` [Meta-cresyl Acetate], with 22.9%. In turn, `CC(C)(O)c1ccccc1CC[C@@H](SCC1(CC(=O)O)CC1)c1cccc(/C=C/c2ccc3ccc(Cl)cc3n2)c1` [Montelukast Sodium] registered a degeneracy of 7.89%. Then `CC(C)(O)c1ccccc1CC[C@@H](SCC1(CC(=O)O)CC1)c1cccc(/C=C/c2ccc3ccc(Cl)cc3n2)c1` [montelukast], with 0%. As for `CCN[C@@H]1C[C@H](N)[C@@H](O[C@H]2OC(CN)=CC[C@H]2N)[C@H](O)[C@H]1O[C@H]1OC[C@](C)(O)[C@H](NC)[C@H]1O` [Netilmicin Sulfate], the figure is 9.43%; as for `Cc1cc(N)c2ccccc2[n+]1CCCCCCCCCC[n+]1c(C)cc(N)c2ccccc21` [Dequalinium Chloride], 14.7%; as for `COc1ccccc1OCC(O)COC(N)=O` (stereo unspecified) [Methocarbamol], 4.76%. Then `CCNC(=O)/C=C/c1cccc(Br)c1` [Cinromide], with 6.9%. With `COc1ccc(Cl)cc1C(=O)NCCc1ccc(S(=O)(=O)NC(=O)NC2CCCCC2)cc1` [Glibenclamide, Glyburide], the degeneracy stood at 0%.

In turn, `Nc1nc(=O)n([C@@H]2CS[C@H](CO)O2)cc1F` [Emtricitabine] returned a degeneracy of 5.26%. Take `CCCCCCNC(=O)n1cc(F)c(=O)[nH]c1=O` [Carmofur]: the degeneracy is 45.7%. As for `CCCOc1ccccc1-c1nc2[nH]nnc2c(=O)[nH]1` [Zaprinast], the figure is 3.45%; as for `CN1CCN2c3ncccc3Cc3ccccc3C2C1` (stereo unspecified) [Mirtazapine], 15.2%. Then `COc1cc(NS(=O)(=O)c2ccc(N)cc2)ncn1` [Sulfamonomethoxine], with 0%; and `Cc1cc(C)nc(NS(=O)(=O)c2ccc(N)cc2)n1` [Sulfamethazine], with 11.1%. Then `CN(C(=O)CN(CCO)CC(=O)N(C)C(C)(C)Cc1ccccc1)C(C)(C)Cc1ccccc1` [oxethazaine], with 100%; and `O=C(O)c1ccc[n+]([O-])c1` [Oxiniacic Acid], with 12.9%. For `NC[C@H]1O[C@H](O[C@H]2[C@H](O)[C@@H](O[C@H]3O[C@H](CO)[C@@H](O)[C@H](N)[C@H]3O)[C@H](N)C[C@@H]2N)[C@H](N)C[C@@H]1O` [Tobramycin], the degeneracy worked out at 5.41%.

In the case of `CCOC(=O)Nc1nc2ccccc2[nH]1` [Lobendazole], the degeneracy was determined as 0%. Then `CCOC(=O)/C=C(C)/C=C/C=C(C)/C=C/c1c(C)cc(OC)c(C)c1C` [Etretinate], with 11.1%; and `O=C(CCBr)N1CCN(C(=O)CCBr)CC1` [Pipobroman], with 2.7%; and `CCCCC1C(=O)N(c2ccccc2)N(c2ccc(O)cc2)C1=O` (stereo unspecified) [Oxyphenbutazone], with 24.3%. Then `CC(=O)Nc1ccc(OC(=O)c2ccccc2O)cc1` [Acetaminosalol], with 8.82%; and `COc1cc2nc(N3CCN(C(=O)C4COc5ccccc5O4)CC3)nc(N)c2cc1OC` (stereo unspecified) [Doxazosin], with 14.3%. In turn, `O=P(O)(O)C(O)(Cn1ccnc1)P(=O)(O)O` [Zoledronic Acid] had a degeneracy of 14.8%. As for `CC(C)(CO)[C@@H](O)C(=O)NCCC(=O)O` [Pantothenic Acid], the figure is 11.1%; as for `Cc1cc(C(C)(C)C)cc(C)c1CC1=NCCN1` [Xylometazoline], 23.1%.
